# Experimental data as given in the supplement of paper PMC4604168 (melanoma cell lines).
# The other results are listed elsewhere or left out. Repeats are few or missing, and single values can be far off.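 The apoptosis fraction was the count of cleaved-PARP antibody-stained nuclei relative to all DNA-stained nuclei, imaged in 1,536-well plates. Screening doses were set so most cells survived, and baseline and induced cleaved-PARP levels vary greatly across cell lines.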
# Key:
# Assay in all cases: cleaved PARP positive nuclei fraction relative to DMSO control; melanoma cells; higher = more apoptosis
# Conditions in all cases: library dose: low library concentration; 72 h
# WM115 = test system: WM115
# WM1716 = test system: WM1716
# WM1745 = test system: WM1745
# WM3526 = test system: WM3526
# WM3619 = test system: WM3619
# WM451Lu = test system: WM451Lu
SMILES,cleaved PARP positive nuclei fraction (WM115),cleaved PARP positive nuclei fraction (WM1716),cleaved PARP positive nuclei fraction (WM1745),cleaved PARP positive nuclei fraction (WM3526),cleaved PARP positive nuclei fraction (WM3619),cleaved PARP positive nuclei fraction (WM451Lu)
"O=C(Nc1cc(C(F)(F)F)cc(C(F)(F)F)c1)c1cc(Cl)ccc1O + O=C1NC(=O)/C(=C/c2ccc(-c3ccc(F)cc3O)o2)S1 [AS252424] (first compound 0.016 µM, partner dose 1 µM)",130%,159%,80.3%,78.3%,92.9%,80%
"O=c1[nH]nc(Sc2ncc([N+](=O)[O-])s2)n1-c1ccc2c(c1)OCCO2 + C=CCNC1=C2C[C@@H](C)C[C@H](OC)[C@H](O)[C@@H](C)/C=C(\C)[C@H](OC(N)=O)[C@@H](OC)/C=C\C=C(/C)C(=O)NC(=CC1=O)C2=O [Tanespimycin] (first compound 0.2 µM, partner dose 0.002 µM)",156%,117%,84.3%,29%,96.1%,48.9%
"Cc1ccc(Nc2nccc(N(C)c3ccc4c(C)n(C)nc4c3)n2)cc1S(N)(=O)=O [Pazopanib] + Cn1cnc2c(F)c(Nc3ccc(Br)cc3Cl)c(C(=O)NOCCO)cc21 [selumetinib] (first compound 0.4 µM, partner dose 0.015 µM)",30.4%,127%,108%,69.6%,111%,67.9%
"O=C(/C=C/c1cccnc1)NCCCCC1CCN(C(=O)c2ccccc2)CC1 + COCC[n+]1c2c(n(Cc3cnccn3)c1C)C(=O)c1ccccc1C2=O [YM155] (first compound 0.01 µM, partner dose 0.0004 µM)",108%,105%,100%,43.3%,110%,25.6%
"Cc1cc(Nc2cc(N3CCN(C)CC3)nc(Sc3ccc(NC(=O)C4CC4)cc3)n2)n[nH]1 [Tozasertib] + O=S(=O)(c1ccccc1)N(CC(F)(F)F)c1ccc(C(O)(C(F)(F)F)C(F)(F)F)cc1 [T0901317] (first compound 0.006 µM, partner dose 1.4 µM)",80%,125%,108%,476%,145%,526%
"CC[C@]1(O)C[C@H]2CN(CCc3c([nH]c4ccccc34)[C@@](C(=O)OC)(c3cc4c(cc3OC)N(C=O)[C@H]3[C@@](O)(C(=O)OC)[C@H](OC(C)=O)[C@]5(CC)C=CCN6CC[C@]43[C@@H]65)C2)C1 [vincristine] + Cn1cncc1[C@@](N)(c1ccc(Cl)cc1)c1ccc2c(c1)c(-c1cccc(Cl)c1)cc(=O)n2C [tipifarnib] (first compound 0.0001 µM, partner dose 0.01 µM)",1850%,309%,120%,100%,143%,133%
"N#CC[C@H](C1CCCC1)n1cc(-c2ncnc3[nH]ccc23)cn1 [ruxolitinib] + CCCCCCCCCCCC1=C(O)C(=O)C=C(O)C1=O [Embelin] (first compound 1 µM, partner dose 1.2 µM)",62.9%,49.3%,200%,70.1%,91.7%,82.8%
"N#CC[C@H](C1CCCC1)n1cc(-c2ncnc3[nH]ccc23)cn1 [ruxolitinib] + COc1ccc(-c2ccc3c(N4CCOCC4)nc(N4C[C@@H](C)O[C@@H](C)C4)nc3n2)cc1CO [KU0063794] (first compound 1 µM, partner dose 0.02 µM)",55%,37.6%,99.3%,70.7%,113%,144%
"O=c1[nH]nc(Sc2ncc([N+](=O)[O-])s2)n1-c1ccc2c(c1)OCCO2 + CN(NC(=O)CC(=O)NN(C)C(=S)c1ccccc1)C(=S)c1ccccc1 [STA4783] (first compound 0.2 µM, partner dose 0.006 µM)",147%,59.7%,151%,68%,126%,118%
"Cc1cc(Nc2cc(N3CCN(C)CC3)nc(Sc3ccc(NC(=O)C4CC4)cc3)n2)n[nH]1 [Tozasertib] + COc1cc(N2CCC(N3CCN(C)CC3)CC2)ccc1Nc1ncc(Cl)c(Nc2ccccc2S(=O)(=O)C(C)C)n1 [NVP-TAE684] (first compound 0.006 µM, partner dose 0.08 µM)",64.1%,38.3%,119%,87.8%,104%,148%
"COc1cc([C@@H]2c3cc4c(cc3[C@@H](O[C@@H]3O[C@@H]5CO[C@@H](C)O[C@H]5[C@H](O)[C@H]3O)[C@H]3COC(=O)[C@H]23)OCO4)cc(OC)c1O [etoposide] + Nc1ncn([C@H]2C[C@H](O)[C@@H](CO)O2)c(=O)n1 [decitabine] (first compound 0.02 µM, partner dose 0.1 µM)",229%,204%,83.6%,40.4%,82.6%,278%

# Retrieved one by one from above:
SMILES,cleaved PARP positive nuclei fraction (WM115),cleaved PARP positive nuclei fraction (WM1716),cleaved PARP positive nuclei fraction (WM1745),cleaved PARP positive nuclei fraction (WM3526),cleaved PARP positive nuclei fraction (WM3619),cleaved PARP positive nuclei fraction (WM451Lu)
"N#CC[C@H](C1CCCC1)n1cc(-c2ncnc3[nH]ccc23)cn1 [ruxolitinib] + COc1ccc(-c2ccc3c(N4CCOCC4)nc(N4C[C@@H](C)O[C@@H](C)C4)nc3n2)cc1CO [KU0063794] (first compound 1 µM, partner dose 0.02 µM)",55%,37.6%,99.3%,70.7%,113%,144%
"O=c1[nH]nc(Sc2ncc([N+](=O)[O-])s2)n1-c1ccc2c(c1)OCCO2 + C=CCNC1=C2C[C@@H](C)C[C@H](OC)[C@H](O)[C@@H](C)/C=C(\C)[C@H](OC(N)=O)[C@@H](OC)/C=C\C=C(/C)C(=O)NC(=CC1=O)C2=O [Tanespimycin] (first compound 0.2 µM, partner dose 0.002 µM)",156%,117%,84.3%,29%,96.1%,48.9%
